# Results published in PubChem BioAssay AID720591 (Broad Institute, 2013).
# Amino acid sequences for entries named in this document (tags omitted). A change or cut given only in a name is not applied to a line headed by its entry.
# UniProt Q9NXA8: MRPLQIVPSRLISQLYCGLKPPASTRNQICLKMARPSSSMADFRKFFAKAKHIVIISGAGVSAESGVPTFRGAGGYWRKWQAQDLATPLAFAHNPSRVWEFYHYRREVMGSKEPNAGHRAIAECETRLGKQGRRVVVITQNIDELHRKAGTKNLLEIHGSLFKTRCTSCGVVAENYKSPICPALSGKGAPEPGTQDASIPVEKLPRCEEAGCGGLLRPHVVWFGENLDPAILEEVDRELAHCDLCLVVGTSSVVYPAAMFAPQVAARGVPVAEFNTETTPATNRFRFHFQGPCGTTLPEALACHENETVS
# The whole screen tested about 1,200 compounds, of which about 60 (5%) were called active. Roughly 1% stayed inconclusive and do not appear here.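 How the source made its calls: active means Decreasing signal and fitted IC50 at most twice the top valid tested dose; inconclusive means Bad fit or a level curve showing 30 to 70% inhibition; inactive means the rest.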 The list shows a part of the results. Potency and affinity values are given separately.
# Target: NAD-dependent protein deacylase sirtuin-5, mitochondrial (Homo sapiens) (UniProt Q9NXA8)
# Assay: SIRT5 desuccinylase inhibitors, dose response, biochemical, fluorescence imaging, cherry-pick, set 5 (AID 720591);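 further: 0% = median of neutral control wells and -100% = median of positive control wells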
# Conditions: Purified SirT5, succinyl-peptide AMC, trypsin-coupled fluorescence; at 15 µM (top of the series) unless noted
row,SMILES,"activity change, negative = inhibition"
1,O=C(CCCl)Nc1nnc(SCC(=O)NC2CCCC2)s1,inactive: 1.62%
2,C=CCNc1nc2c(c(=O)[nH]c(=O)n2C)n1Cc1cccc(C)c1,inactive: -16.2%
3,Cc1ccc(-c2ccc(=O)n(CC(=O)Nc3ccc4c(c3)OCCO4)n2)cc1,inactive: 16.6%
4,Cc1cccc(NC(=O)c2nc[nH]c2C(=O)NC[C@H](C)O)c1,inactive: -25%
5,C[C@@H]1CN([C@@H](C)CO)C(=O)c2cc(NC(=O)C3CC3)ccc2O[C@H]1CN(C)C,inactive: -30.2%
6,Cc1noc(C)c1COc1ccc(C(=O)N2CCN(S(=O)(=O)c3cccc(F)c3)CC2)cc1,inactive: -6.62%
7,COC(=O)c1cn(C(=O)c2ccccc2Cl)c2ccccc12,inactive: 30.1%
8,COc1ccc(S(=O)(=O)N2CCCCCC2)cc1C(=O)N(C)CC(=O)Nc1ccc(F)cc1,inactive: 3.48%
9,O=C(c1cccc(F)c1)N1CCCC(C(=O)N2CCCCCC2)C1 (centres undefined),inactive: 16.1%
10,CC1(C)NC(=O)N(CCOCCOc2ccccc2-c2ccccc2)C1=O,inactive: 8%
11,CCN(CC(=O)Nc1cc(Cl)ccc1-n1cncn1)Cc1nc2ccccc2c(=O)[nH]1,inactive: -29.4%
12,CC1c2nc3ccccc3n2C(CC(=O)NC2CC2)C(=O)N1Cc1ccccc1 (centres undefined),inactive: 4.72%
13,COc1ccc(CN(C(=O)c2ccco2)c2ccccc2)cc1,inactive: 13.5%
14,Cc1ccc(N(CC(=O)NC(C)(C)C)C(=O)CS(=O)CC(=O)Nc2ccc(F)cc2)cc1 (centres undefined),inactive: -30%
15,O=C(COC(=O)CNC(=O)c1ccccc1)NC(=O)NC1CCCCC1,inactive: -17.8%
16,Cc1ccc(N(C(=O)CS(=O)CC(=O)Nc2ccc(F)cc2)C(C)C(=O)NC(C)(C)C)cc1 (centres undefined),inactive: -21.8%
17,CCOc1ccc2nc(SCC(=O)NCc3ccc(OC)cc3)[nH]c2c1,inactive: -23.5%
18,CC(=O)Nc1cccc(-c2nn[nH]n2)c1,inactive: 6.01%
19,COc1ccccc1N1CCN(CC(=O)Nc2c(C)n(C)n(-c3ccccc3)c2=O)CC1,inactive: -25.9%
20,Cc1ccn2cc(CSc3ccccc3)nc2c1,inactive: 6.69%
21,Cc1cc(C)cc(N(C(=O)c2csnn2)C(C(=O)NC(C)(C)C)c2ccccn2)c1 (centres undefined),inactive: 4.39%
22,Cc1cc(C)cc(N(C(=O)CCC(=O)Nc2cc(C)on2)C(C(=O)NC2CCCC2)c2ccco2)c1 (centres undefined),inactive: -2.73%
23,O=C(O)c1cc(Cl)ccc1-c1ccc(/C=C/c2cc(C(F)(F)F)[nH]c(=O)n2)o1,inactive: -4.33%
24,Fc1ccccc1Cc1noc(CN2CCCC(CN3CCOCC3)C2)n1 (centres undefined),inactive: -4.94%

# 2 of the compounds above, with bars between the fields:
row | SMILES | activity change, negative = inhibition
19 | COc1ccccc1N1CCN(CC(=O)Nc2c(C)n(C)n(-c3ccccc3)c2=O)CC1 | inactive: -25.9%
20 | Cc1ccn2cc(CSc3ccccc3)nc2c1 | inactive: 6.69%
